Results published in article PMC4545792.
Where a chain is given by its changes, count along the chain named. Like-named read-outs stand apart in the source and are kept apart here. These are yes or no findings as the source states them, for the method shown. In cells and extracts the contact can be indirect. Some binding calls cover weakened binding; strength is not graded here. Sequences can lack the tags named with a protein.

Chains of the proteins cited; added tags and fusions are not shown. Residues count along the entry.
UniProt Q61102, residues 23-752: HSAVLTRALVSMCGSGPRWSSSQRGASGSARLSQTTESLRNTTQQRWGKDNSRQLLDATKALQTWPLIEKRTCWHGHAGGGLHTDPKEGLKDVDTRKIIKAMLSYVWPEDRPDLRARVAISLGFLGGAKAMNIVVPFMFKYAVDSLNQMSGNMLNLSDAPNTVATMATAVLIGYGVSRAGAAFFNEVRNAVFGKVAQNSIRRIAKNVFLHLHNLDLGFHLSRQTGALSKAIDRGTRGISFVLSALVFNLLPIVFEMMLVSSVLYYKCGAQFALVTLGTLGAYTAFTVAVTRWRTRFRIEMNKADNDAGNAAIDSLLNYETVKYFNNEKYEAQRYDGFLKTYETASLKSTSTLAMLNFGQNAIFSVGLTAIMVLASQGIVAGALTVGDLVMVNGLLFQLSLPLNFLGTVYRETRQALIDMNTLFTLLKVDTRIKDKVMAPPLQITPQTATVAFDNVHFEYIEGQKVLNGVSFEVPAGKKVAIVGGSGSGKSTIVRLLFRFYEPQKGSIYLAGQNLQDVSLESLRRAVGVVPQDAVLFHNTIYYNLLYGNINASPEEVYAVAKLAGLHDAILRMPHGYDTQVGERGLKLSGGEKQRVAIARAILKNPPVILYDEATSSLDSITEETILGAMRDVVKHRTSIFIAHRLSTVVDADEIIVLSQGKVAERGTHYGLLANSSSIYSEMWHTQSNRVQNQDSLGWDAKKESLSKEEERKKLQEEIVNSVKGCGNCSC

Experiments:
Test in all cases: co-IP; FLAG elutions of the anti-FLAG affinity purification from mitochondrial lysate of induced MEL cells (empty vector, WT FECH, M76H, E343K), immunoblots probed for abcb7, abcb10, sucla2, ppox and fech
[1] = biological target: T1, FLAG-FECH (human ferrochelatase, wild type) (human) (UniProt P22830)
T1 sequence: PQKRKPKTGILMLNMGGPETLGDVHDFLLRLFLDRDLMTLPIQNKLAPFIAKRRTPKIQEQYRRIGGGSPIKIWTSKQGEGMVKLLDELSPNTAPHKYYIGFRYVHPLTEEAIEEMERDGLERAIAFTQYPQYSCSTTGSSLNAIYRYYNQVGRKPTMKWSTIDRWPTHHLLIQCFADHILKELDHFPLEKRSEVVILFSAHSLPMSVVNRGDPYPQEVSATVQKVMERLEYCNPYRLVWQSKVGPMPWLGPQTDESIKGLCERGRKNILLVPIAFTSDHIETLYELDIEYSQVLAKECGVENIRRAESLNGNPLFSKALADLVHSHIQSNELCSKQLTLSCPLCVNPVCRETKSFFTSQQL

[2] = biological target: T2, FLAG-FECH E343K variant (human ferrochelatase) (human) (UniProt P22830)
T2 sequence: T1 sequence with E282K

[3] = biological target: T3, FLAG-FECH M76H variant (human ferrochelatase) (human) (UniProt P22830)
T3 sequence: T1 sequence with M15H

[4] = biological target: T1, FLAG-FECH (human ferrochelatase, wild type) (human); remark: listed apart in the source
[5] = biological target: T2, FLAG-FECH E343K variant (human ferrochelatase) (human); remark: listed apart in the source
[6] = biological target: T3, FLAG-FECH M76H variant (human ferrochelatase) (human); remark: listed apart in the source

Measured: binding

mouse abcb7 (from UniProt Q61102 23-752)
binds: [1] | [2] | [3]

B1: mouse succinyl-CoA synthetase beta subunit (sucla2) (enzyme, UniProt Q9Z2I9 54-463)
chain: SLHEYLSMELLQEAGVSVPKGFVAKSSDEAYAIAKKLGSKDVVIKAQVLAGGRGKGTFTSGLKGGVKIVFSPEEAKAVSSQMIGQKLITKQTGEKGRICNQVLVCERKYPRREYYFAITMERSFQGPVLIGSAQGGVNIEDVAAENPEAIVKEPIDIVEGIKKEQAVTLAQKMGFPSNIVDSAAENMIKLYNLFLKYDATMVEINPMVEDSDGKVLCMDAKINFDSNSAYRQKKIFDLQDWSQEDERDKEAANADINYIGLDGSIGCLVNGAGLAMATMDIIKLHGGTPANFLDVGGGATVQQVTEAFKLITSDKKVQAILVNIFGGIMRCDVIAQGIVMAVKDLEIRIPVVVRLQGTRVDDAKALIADSGLKILACDDLDEAAKMVVKLSEIVTLAKEAHVDVKFQLPI
binds: [4] | [5] | [6]

B2: mouse abcb10 (protein, UniProt Q9JI39 83-715)
chain: AGPRAAHPLFARLQGAAATGVRDLGNDSQRRPAATGRSEVWKLLGLVRPERGRLSAAVGFLAVSSVITMSAPFFLGRIIDVIYTNPSEGYGDSLTRLCAVLTCVFLCGAAANGIRVYLMQSSGQSIVNRLRTSLFSSILRQEVAFFDKTRTGELINRLSSDTALLGRSVTENLSDGLRAGAQASVGVGMMFFVSPSLATFVLSVVPPISVLAVIYGRYLRKLSKATQDSLAEATQLAEERIGNIRTIRAFGKEMTEVEKYTGRVDQLLQLAQKEALARAGFFGAAGLSGNLIVLSVLYKGGLLMGSAHMTVGELSSFLMYAFWVGLSIGGLSSFYSELMKGLGAGGRLWELLERQPRLPFNEGMVLDEKTFQGALEFRNVHFTYPARPEVSVFQDFSLSIPSGSVTALVGPSGSGKSTVVSLLLRLYDPNSGTVSLDGHDIRQLNPVWLRSKIGTVSQEPVLFSCSVAENIAYGADNLSSVTAQQVERAAEVANAAEFIRSFPQGFDTVVGEKGILLSGGQKQRIAIARALLKNPKILLLDEATSALDAENEHLVQEALDRLMEGRTVLIIAHRLSTIKNANFVAVLDHGKICEHGTHEELLLKPNGLYRKLMNKQSFLSYNGAEQFLEPARA
binds: [4] | [5] | [6]

B3: mouse protoporphyrinogen oxidase (enzyme, UniProt P51175 1-477)
chain: MGRTVIVLGGGISGLAASYHLIRGPSPPKVILVEGSKRLGGWIRSIRGSDGAIFELGPRGIRPAGALGARTLLLVSELGLESEVLPVRGDHPAAQNRFLYVGGTLHPLPSGLRGLLRPSPPFSKPLFWAGLRELLKPRGKEPDETVHSFAQRRLGPEVASLAMDSLCRGVFAGNSRELSIRSCFPSLFQAEQTHRSILLGLLLGAGQSPQPDSSLIRQARAERWSQWSLRGGLEVLPQALHNHLASKGVTVLSGQPVCGLSLQPEGRWKVSLGDSSLEADHIISAIPASELSKLLPAEAAPLARILSTIKAVSVAVVNLQYRGACLPVQGFGHLVPSSEDPTVLGIVYDSVAFPEQDGNPPSLRVTVMLGGYWLQKLKAAGHQLSPELFQQQAQEAAATQLGLKEPPSHCLVHLHKNCIPQYTIGHWQKLDSAMQFLTAQRLPLTLAGASYEGVAVNDCIESGRQAAVAVLGTESNS
binds: [4] | [5] | [6]
